Primary screen of a compound library

Measurements from “University of Dundee, Small-Polar-MMV Screening Library” (2021), ChEMBL document CHEMBL3988442.

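Viability assay of Plasmodium falciparum sporozoites; the read-out is not stated. The concentration is filed as 10 mM, unlikely as a test dose, so the dose is not known. The record gives no direction; compounds that gave an IC50 in retests scored well above the rest, so higher reads as lower viability. Strong results were mostly tested again. About 34,000 compounds were tested under these conditions; 0.84% (about 280) showed 50% or more at least once.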

The filed quantity is “Percent Effect” (%). How 0% and 100% were set is not recorded. Most values in the screen are low, and negative values occur. This is an unselected part of the compounds tested. Two or more numbers in one place are separate tests of the same structure; such repeats can differ widely.

- CC(O)CN1CCN(C(=O)CN(C)c2ccc(Cl)cn2)CC1 (stereo not given) : 0.8235%
- O=C(O)C(F)(F)F.[H][C@@]12C[C@H](C(=O)N3CCCC3)[C@@]([H])(CN(CCC(C)C)C1)O2 : 11.27%
- CC(NC(=O)CCCC(=O)c1cccs1)c1nnc2n1CCC2 (stereo not given) : 9.072%
- CCn1ccnc1CN1CCCN(C(=O)c2scnc2C)CC1 : 10.9%
- CC(C)(C)c1cn2nc(N3CCCC(Cn4cncn4)C3)sc2n1 (stereo not given) : 61.38% and 60.13% and 50.37%
- COc1ccc(C(=O)N2C[C@@H](CN3CCOCC3)[C@@H](CO)C2)c(C)c1 : -10.29%
- CC(NC(=O)NCCCn1cncn1)c1ccc(F)cc1 (stereo not given) : 4.736%
- COc1ccc(CN(C)CC(=O)NC2(C)CCS(=O)(=O)C2)cc1F (stereo not given) : -13.24%
- CS(=O)(=O)N1CCc2[nH]cnc2C12CCN(C(=O)c1ccccc1)CC2 : -10.81% and -14.16%
- [H][C@]12CC[C@]([H])(CN(C(=O)c3cccnc3)C1)N(Cc1ccc(F)cc1Cl)C2 : -1.14%
- NC(=O)c1cc(C2CCCN(CCCOc3ccc(F)cc3)C2)n[nH]1 (stereo not given) : 3.484%
- Cc1ccc(-n2cc(C(=O)N3CCCC(n4cccn4)C3)nn2)cc1 (stereo not given) : 0.8103%
- NC(=O)c1cnn2c1NCC(CNCCOc1ccccc1)C2 (stereo not given) : 11.95%
- Cc1oncc1C(=O)N1CCC2(C1)CN(c1cccnc1)C(=O)CN2C (stereo not given) : -2.273%
- CC1CN(C(=O)CN(Cc2ccccc2)C2CC2)CCO1 (stereo not given) : 10.99%
- N#Cc1cccnc1N1CCCN(CC(=O)N2CCNC(=O)C2)CC1 : 7.008%
- Cc1ccc(C(=O)NCCCNS(C)(=O)=O)c(=O)[nH]1 : -3.833%
- COc1ccc(C(=O)N(C)Cc2c(C)noc2C)cn1 : 8.528%
- COc1ccccc1OCCC(=O)NC1CCc2nc(C)cn2C1 (stereo not given) : 0.4902%
- CC(C)N1CCCCC1c1cc(CO)[nH]n1 (stereo not given) : 0.7282%
- CC(NC(=O)NCC1(c2ccc(Cl)cc2)CC1)c1nncn1C (stereo not given) : -8.736%
- Cc1cccc(OCCC(=O)N2CCN(CC(=O)NC3CC3)CC2)c1C : 4.831%
- COc1cccc(CNC(=O)c2ccccc2-n2cnc(CN)c2)c1 : 5.596%
- Cc1cc(C(=O)NCc2cccnc2N(C)C)c(C)o1 : 4.571%
- CC(=O)Nc1nc(C(=O)Nc2ccc(N3CCCCC3)nc2)cs1 : -15.99%
- Cc1c(C(=O)NC(C)C(C)C)nnn1-c1cccc2c1CCN(C)C2 (stereo not given) : -8.455%
- CCn1cnnc1CNC(=O)N1CCC(CN2CCOCC2)CC1 : 9.623%
- CCC(CC)NC(=O)Cn1nc(C)nc1-c1ccccc1 : 7.68%
- O=C1CN(CC2CC2)Cc2nc(NCCc3ccccn3)sc21 : 6.351%
- CN(C)C(=O)CO[C@H]1CO[C@@]2(CCN(S(C)(=O)=O)C2)C1 : -7.581%
- Cc1n[nH]c(C)c1C1COCCN1c1ncnc2sccc12 (stereo not given) : 11.52%
- CC(C)CC(C)NCCCN1CCCN(C)CC1 (stereo not given) : 8.81%
- CNC(=O)COc1ccc(CNCc2ccc(F)cc2F)cc1 : -3.807%
- [H][C@@]12CN(C(=O)[C@H]3CCCO3)C[C@]1([H])C(=O)N(CCOC)C2 : 9.103%

For reference, 3 entries once more:

- CC(NC(=O)CCCC(=O)c1cccs1)c1nnc2n1CCC2 (stereo not given) : 9.072%
- CC(C)(C)c1cn2nc(N3CCCC(Cn4cncn4)C3)sc2n1 (stereo not given) : 61.38% and 60.13% and 50.37%
- Cc1ccc(C(=O)NCCCNS(C)(=O)=O)c(=O)[nH]1 : -3.833%